# Measurements: the supplement of paper PMC4749390
# Where a name gives a salt, the structure may show the parent alone. Some of the results follow. This data set is noisy: repeats of one test often differ as much as different tests do.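 JEG3 cells stably carry tetracycline-induced wild-type human LRH-1, a heavily sumoylated nuclear receptor. APOC3 and MUC1 are SUMO-sensitive transcripts, raised by SUMO-less LRH-1 or UBC9 knockdown, measured by RT-qPCR against TBP and DMSO controls. A robust Z-score above +2 or below -2 marked a primary hit before toxicity and TBP filtering.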
# System: JEG3 expressing hLRH-1
# Test: APOC3 transcript change (ddCt vs TBP and DMSO), Z-score over library; higher = higher APOC3 expression
# Conditions: 10 µM; time (hr): 24
row,SMILES,APOC3 transcript change (Z-score)
1,CC(=O)N(CC(O)CN(C(C)=O)c1c(I)c(C(=O)NCC(O)CO)c(I)c(C(=O)NCC(O)CO)c1I)c1c(I)c(C(=O)NCC(O)CO)c(I)c(C(=O)NCC(O)CO)c1I (configuration not stated) [iodixanol],-0.329
2,CC(C)(C)c1ccc(C(O)CCCN2CCC(C(O)(c3ccccc3)c3ccccc3)CC2)cc1 (configuration not stated) [terfenadine],1.23
3,CC(O)C(=O)O (configuration not stated) [ammonium lactate],-0.413
4,CC1CCc2cc(F)cc3c(=O)c(C(=O)O)cn1c23 (configuration not stated) [flumequine],-0.567
5,COc1nc(N)nc2c1ncn2C1O[C@H](CO)[C@@H](O)[C@@H]1O (some centres not stated) [nelarabin],-0.235
6,COc1c2occc2cc2ccc(=O)oc12 [methoxsalen],-0.318
7,c1ccc2c(c1)CCCC2C1=NCCN1 (configuration not stated) [tetrahydrozoline hydrochloride],-1.1
8,NC(=O)C(c1ccccc1)(c1ccccc1)C1CCN(CCc2ccc3c(c2)CCO3)C1 (configuration not stated) [darifenacin hydrobromide],-0.171
9,C[C@]12CCC3c4ccc(O)cc4CCC3C1CC[C@@H]2O (some centres not stated) [estradiol],0.0304
10,CC(C(=O)O)c1ccc(-c2ccccc2)c(F)c1 (configuration not stated) [flurbiprofen],0.0118
11,CCCCCCOc1ccccc1C(N)=O [exalamide],0.21
12,CCO/C(O)=C1\C(C)=NC(C)=C(C(=O)OC)C1c1cccc([N+](=O)[O-])c1 (configuration not stated) [Nitrendipine],0.925
13,CNCCCN1c2ccccc2CCc2ccccc21 [Desipramine hydrochloride],0.678
14,Cc1nc(COP(=O)(O)O)cc2c1[O][Mn][O]c1c(cc(COP(=O)(O)O)nc1C)CN(CC(=O)O)CCN(CC(=O)O)C2 [mangafodipir trisodium],-0.0126
15,CO/N=C(\C(=O)N[C@@H]1C(=O)N2C(C(=O)OCOC(=O)C(C)(C)C)=C(/C=C\c3scnc3C)CS[C@H]12)c1csc(N)n1 [cefditorin pivoxil],1.01
16,O=C(OC[C@H]1O[C@@H](OC(=O)c2cc(O)c(O)c(OC(=O)c3cc(O)c(O)c(O)c3)c2)[C@H](OC(=O)c2cc(O)c(O)c(OC(=O)c3cc(O)c(O)c(O)c3)c2)[C@@H](OC(=O)c2cc(O)c(O)c(OC(=O)c3cc(O)c(O)c(O)c3)c2)[C@@H]1OC(=O)c1cc(O)c(O)c(OC(=O)c2cc(O)c(O)c(O)c2)c1)c1cc(O)c(O)c(OC(=O)c2cc(O)c(O)c(O)c2)c1 [tannic acid],4.87
17,CCCCC(=O)O[C@H]1CC[C@H]2[C@@H]3CCc4cc(O)ccc4[C@H]3CC[C@]12C [estradiol valerate],0.473
18,Cc1ccc(Nc2c(F)cccc2Cl)c(CC(=O)O)c1 [lumiracoxib],-0.95
19,CCN(Cc1ccncc1)C(=O)C(CO)c1ccccc1 (configuration not stated) [Tropicamide],-0.242
20,O=C1NC(=O)C(c2ccccc2)(c2ccccc2)N1 [Phenytoin sodium],-0.697
21,Cc1cccc(C(=O)O)c1O [hydroxytoluic acid],0.876
22,Cc1ccc2c(Br)cc(Br)c(OC(=O)c3ccccc3)c2n1 [broxaldine],-1.31
23,CN(C/C=C/C#CC(C)(C)C)Cc1cccc2ccccc12 [terbinafine hydrochloride],-1.44
24,CCOc1ccc2ccccc2c1NC(=O)[C@@H]1C(=O)N2C(C(=O)O)C(C)(C)S[C@H]12 (some centres not stated) [nafcillin sodium],-0.18

# Exported with bars between the fields: 2 of the compounds above
row | SMILES | APOC3 transcript change (Z-score)
6 | COc1c2occc2cc2ccc(=O)oc12 [methoxsalen] | -0.318
7 | c1ccc2c(c1)CCCC2C1=NCCN1 (configuration not stated) [tetrahydrozoline hydrochloride] | -1.1

# Next structures:

row,SMILES,APOC3 transcript change (Z-score)
1,CC(CNCCc1ccc(O)c(O)c1)Cc1cccc(O)c1 (configuration not stated) [dobutamine hydrochloride],0.509
2,CC1(C)S[C@@H]2[C@H](NC(=O)[C@H](N)c3ccc(O)cc3)C(=O)N2[C@H]1C(=O)O [amoxicillin],0.0889
3,COc1cc(O)cc(C(=O)c2ccccc2)c1S(=O)(=O)O [sulisobenzone],0.207
4,COc1cccc2c1C(=O)c1c(O)c3c(c(O)c1C2=O)C[C@@](O)(C(=O)CO)C[C@@H]3O[C@H]1C[C@H](N)[C@H](O)[C@H](C)O1 [doxorubicin],3.49
5,CCOc1ccccc1C(N)=O [ethenzamide],-0.513
6,Nc1nc(/C(=C/CC(=O)O)C(=O)N[C@@H]2C(=O)N3C(C(=O)O)=CCS[C@H]23)cs1 [ceftibuten],0.283
7,CC1(C)S[C@@H]2[C@H](NC(=O)[C@H](NC(=O)N3CCNC3=O)c3ccccc3)C(=O)N2[C@H]1C(=O)O [azlocillin sodium],-0.0919
8,CCCCCCCCCc1ccc(OCCOCCOCCOCCOCCOCCOCCOCCOCCO)cc1 [nonoxynol-9],-0.48
9,O=C(O)c1cn(C2CC2)c2cc(N3CCNCC3)c(F)cc2c1=O [ciprofloxacin],-0.515
10,CN/C(=C\[N+](=O)[O-])NCCSCc1ccc(CN(C)C)o1 [Ranitidine hydrochloride],-0.196
11,CC(NCCC(c1ccccc1)c1ccccc1)c1ccccc1 (configuration not stated) [fendiline hydrochloride],-4.11
12,C[N+](C)(C)CCCCCC[N+](C)(C)C [Hexamethonium dichloride],-1.59
13,NC(N)=NCCCC(N)C(=O)O (configuration not stated) [arginine hydrochloride],-0.13
14,CN1C(C)(C)CCCC1(C)C [pempidine tartrate],-0.0976
15,CN1CCN(C2=Nc3ccccc3Oc3ccc(Cl)cc32)CC1 [Loxapine succinate],0.198
16,CN1CCC[C@@H]1CCO[C@](C)(c1ccccc1)c1ccc(Cl)cc1 [clemastine],0.717
17,COc1ccc(C2Sc3ccccc3N(CCN(C)C)C(=O)C2OC(C)=O)cc1 (configuration not stated) [diltiazem hydrochloride],0.853
18,CC(=O)Nc1ccccc1 [acetanilide],-0.361
19,COc1ccc(CN2CCN(C(c3ccc(F)cc3)c3ccc(F)cc3)CC2)c(OC)c1OC [lomerizine hydrochloride],-1.96
20,C#C[C@]1(O)CCC2C3CCc4cc(O)ccc4C3CC[C@@]21C (some centres not stated) [ethinyl estradiol],1.3
21,O=C1CC[C@@H](C(=O)O)N1 [pidolic acid],0.645
22,CC1(C)[C@@H]2CC[C@@]1(C)C(=O)C2 [camphor (1r)],-0.139
23,O=c1[nH]c(=O)n(C2C[C@@H](O)[C@@H](CO)O2)cc1F (some centres not stated) [floxuridine],0.891
